Reference: PMC12718261, “New Fluorescent Synthetic Retinoids as Potential RAR Agonists with Anticancer, Molecular Docking and ADME Assessments” (Journal of Fluorescence, 2025)

Experiments:
Type in all cases: cell-based
Caco-2 = experiment: MTT anti-proliferative assay; settings: IC50 (WI-38)/IC50 (Caco-2)
Protocol: (§1) The antiproliferation and cytotoxicity were assessed using 3-(4,5-dimethylthiazol-2-yl)−2,5-diphenyltetrazolium bromide (MTT, Serva) colorimetric assay. All tested cancer cell lines were seeded at a density of 20,000 cells per well in 96-well plates and allowed to adhere overnight. The attached cells were treated with five serial dilutions (100, 50, 5, 0.5, and 0.1 μM) in triplicate. These concentrations were prepared by diluting the stock solutions with serum-free culture media. The negative control cells were those treated with 0.1% DMSO solvent alone. The treated cells were handled in reduced light and maintained under standard culture growth conditions for 24 h. After the incubation period, MTT powder was prepared as a stock solution (5 mg/mL), and 20 μL of the MTT working reagent (final concentration 0.5 mg/mL) was added to each well. This was followed by incubation with MTT reagent for 4 h in a humidified atmosphere (37 °C, 5% CO2) with subsequent addition of 150 μL of DMSO solubilizing solvent and incubation for 20 min. The absorbance of solubilized violet formazan crystals was measured at 570 nm with a Biotek 800 TS microplate reader. IC50 was calculated as the concentration of retinoid that produced 50% cell growth inhibition. For cytotoxicity assessment, WI-38 normal human fibroblast cells were used for the calculation of SI, which is the ratio of IC50 retinoid (WI-38)/IC50 retinoid (cancer cell line).

HCT-116 = experiment: MTT anti-proliferative assay; settings: IC50 (WI-38)/IC50 (HCT-116)
Protocol: as §1

HepG-2 = experiment: MTT anti-proliferative assay; settings: IC50 (WI-38)/IC50 (HepG-2)
Protocol: as §1

MCF-7 = experiment: MTT anti-proliferative assay; settings: IC50 (WI-38)/IC50 (MCF-7)
Protocol: as §1

MDA-MB231 = experiment: MTT anti-proliferative assay; settings: IC50 (WI-38)/IC50 (MDA-MB231)
Protocol: as §1

PC-3 = experiment: MTT anti-proliferative assay; settings: IC50 (WI-38)/IC50 (PC-3)
Protocol: as §1

[1] = system: different cancer cell lines; experiment: MTT anti-proliferative assay, whole panel statements; settings: IC50 (WI-38)/IC50 (cancer cell line)
Protocol: as §1, with “For cytotoxicity assessment, WI-38 normal human fibroblast cells were used for the calculation of SI, which is the ratio of IC50 retinoid (WI-38)/IC50 retinoid (cancer cell line).” left out

SMILES | SI (Safety Index) (Caco-2) | SI (Safety Index) (HCT-116) | SI (Safety Index) (HepG-2) | SI (Safety Index) (MCF-7) | SI (Safety Index) (MDA-MB231) | SI (Safety Index) (PC-3) | SI across cancer cell lines [1]
O=C(O)c1ccc2cc(-c3ccc4c(c3)CCCO4)ccc2c1 [Compound 4b, 6-(chroman-6-yl)−2-naphthoic acid] | 2.24 | 0.91 | 0.56 | 0.63 | 14.71 | 12.35 | –
COC(=O)c1ccc2cc(-c3ccc4c(c3)CCCO4)ccc2c1 [Compound 3b, Methyl 6-(chroman-6-yl)−2-naphthoate] | 2.03 | 0.55 | 2.44 | 2.39 | 14.00 | 6.36 | > 1
CC1=C(/C=C/C(C)=C/C=C/C(C)=C/C(=O)O)C(C)(C)CCC1 [ATRA, all-trans-retinoic acid, reference compound] | 4.11 | 1.21 | 2.92 | 9.51 | 4.52 | 21.17 | –
O=C(O)c1ccc2cc(-c3ccc4c(c3)CCCN4)ccc2c1 [Compound 4a, 6-(1,2,3,4-tetrahydroquinolin-6-yl)−2-naphthoic acid] | 0.93 | 0.33 | 0.82 | 0.67 | 18.06 | 15.75 | –
COC(=O)c1ccc2cc(-c3ccc4c(c3)CCCN4)ccc2c1 [Compound 3a, Methyl 6-(1,2,3,4-tetrahydroquinolin-6-yl)−2-naphthoate] | 4.09 | 3.86 | 6.16 | 2.84 | 16.81 | 2.08 | > 1
